In patent publication US11384101B2, “Oral care compositions” (priority 2017, dated 2022):

Conditions: room temperature

SMILES | concentrations at which readily soluble in water (up to) | concentrations producing a translucent gel or soft-solid material (water)
CCCCCCCCCCCCCCCC[n+]1ccccc1 [CPC, Cetylpyridinium chloride, reference compound] | up to 25 weight % | greater than 40 weight %
[Cl-].[Cl-].[Zn+2] [ZnCl2, zinc chloride] | up to 75 weight % | 
